Laboratory results taken from US8778946B2, “3-substituted-6-(pyridinylmethoxy)-pyrrolopyridine compounds” (Eli Lilly and Company, priority 2010, dated 2014).
Some of these results come from one statement about several compounds together.

Sequences of proteins named here, by UniProt entry; tags and fusion partners are left off. Residues count along the entry.
UniProt Q13255, 19-1194: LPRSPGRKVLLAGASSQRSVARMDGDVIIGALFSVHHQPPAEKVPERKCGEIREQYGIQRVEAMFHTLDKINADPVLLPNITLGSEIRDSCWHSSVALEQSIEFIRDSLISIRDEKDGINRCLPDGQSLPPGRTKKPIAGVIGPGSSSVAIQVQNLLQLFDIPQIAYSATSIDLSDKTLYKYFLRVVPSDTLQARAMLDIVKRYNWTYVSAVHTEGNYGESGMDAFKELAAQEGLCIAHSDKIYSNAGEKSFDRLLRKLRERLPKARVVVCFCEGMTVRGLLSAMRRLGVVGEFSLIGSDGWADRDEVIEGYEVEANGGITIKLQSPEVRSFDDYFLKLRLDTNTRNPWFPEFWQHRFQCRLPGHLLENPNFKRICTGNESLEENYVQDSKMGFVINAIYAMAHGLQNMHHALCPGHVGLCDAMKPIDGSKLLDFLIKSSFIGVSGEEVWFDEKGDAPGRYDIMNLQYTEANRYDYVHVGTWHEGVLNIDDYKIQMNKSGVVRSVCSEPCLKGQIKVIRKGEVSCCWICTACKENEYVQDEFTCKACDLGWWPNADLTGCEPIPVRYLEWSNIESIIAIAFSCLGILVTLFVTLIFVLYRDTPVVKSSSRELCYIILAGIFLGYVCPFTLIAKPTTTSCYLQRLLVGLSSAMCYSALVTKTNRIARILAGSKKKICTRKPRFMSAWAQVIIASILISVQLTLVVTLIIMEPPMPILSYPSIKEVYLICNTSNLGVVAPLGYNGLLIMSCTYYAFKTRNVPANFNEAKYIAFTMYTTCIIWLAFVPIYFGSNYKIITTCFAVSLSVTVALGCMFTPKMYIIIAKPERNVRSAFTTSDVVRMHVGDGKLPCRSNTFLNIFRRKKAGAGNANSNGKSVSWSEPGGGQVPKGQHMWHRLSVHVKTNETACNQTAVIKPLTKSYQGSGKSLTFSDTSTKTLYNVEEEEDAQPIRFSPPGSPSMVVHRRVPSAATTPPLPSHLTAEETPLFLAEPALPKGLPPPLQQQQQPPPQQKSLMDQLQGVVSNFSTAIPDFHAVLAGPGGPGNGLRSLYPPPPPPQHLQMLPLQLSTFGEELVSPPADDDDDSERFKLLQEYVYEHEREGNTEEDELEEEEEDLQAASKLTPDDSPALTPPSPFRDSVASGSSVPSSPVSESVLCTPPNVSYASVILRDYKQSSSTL

Biological target: T1, human mGluR1 (Homo sapiens, UniProt Q13255)
T1 construct: expressed in transfected cells; host or cells: AV-12 cells containing the rat EAAT1 glutamate transporter
Assay: Human mGluR1 in vitro functional assay (FLIPR calcium, antagonism of glutamate EC90 response)
Assay type: cell-based
Conditions: AV-12 cells expressing recombinant human mGlu1α, relative IC50
Excerpt: The activation of G-protein coupled receptors (GPCRs) that are coupled to Gq proteins results in a change in intracellular calcium concentration. This functional response can be measured in a kinetic assay using calcium-sensitive dyes and a fluorescent imaging plate reader using a standard technique known as FLIPR (MDS Analytical Technologies, Sunnyvale, Calif.).
Stable cell line preparation and assay techniques are adapted from Kingston, A. E., et. al. (1995) Neuropharmacology 34: 887-894. Briefly, clonal cell lines expressing recombinant human mGlu5a and mGlu1α receptors are transfected into AV-12 cells (American Type Culture Collection, Manassas, Va.) containing the rat EAAT1 glutamate transporter. Cells are grown in Dulbecco's Modified Eagle's Medium (DMEM; Invitrogen, Carlsbad, Calif.) supplemented with 5% fetal bovine serum, 1 mM L-glutamine, 1 mM sodium pyruvate, 10 mM HEPES (4-(2-hydroxyethyl)-1-piperazineethanesulfonic acid), 0.75 mg/ml geneticin, and 0.3 mg/ml hygromycin B at 37° C. in an incubator with 95% relative humidity and 5% CO2. Confluent cultures are passaged biweekly.
For the functional assays, cells are seeded in growth medium lacking selection antibiotics at a density of 65K per well into 96-well, black/clear bottom, poly-D-lysine coated microplates and incubated for 18-20 hours prior to the experiment. After removing the medium, cells are dye-loaded with 8 μM Fluo-3 (Invitrogen) in assay buffer consisting of Hanks Balanced Salt Solution (Invitrogen) supplemented with 20 mM HEPES for 1.5 h at 25° C. Compounds are serially diluted into DMSO and then diluted once into assay buffer; the final DMSO concentration in the assay is 0.625%. A single-addition FLIPR assay generating an 11-point dose response curve for the agonist glutamate is conducted prior to each experiment to estimate the amount of agonist needed to induce an EC90 response. The antagonist effects of compounds are quantified in the FLIPR instrument in 10-point dose curves by comparing the peak fluorescent responses to the agonist glutamate in the presence and absence of compound. Specifically, the compound effect is measured as maximal minus minimal peak heights in relative fluorescent units corrected for basal fluorescence as measured in the absence of glutamate. All data are calculated as relative IC50 values using a four-parameter logistic curve fitting program (Activity Base® v5.3.1.22).

Row | Structure (SMILES) | IC50 [µM]
1 | CCOC(=O)N1CCN(c2cn(C)c3nc(OCc4cccc(C)n4)ccc23)C(=O)C1 [Example 11, Ethyl 4-{1-methyl-6-[(6-methylpyridin-2-yl)methoxy]-1H-pyrrolo[2,3-b]pyridin-3-yl}-3-oxopiperazine-1-carboxylate] | > 6
2 | CCOC(=O)N1CCN(c2cn(C)c3nc(OCc4ccccn4)c(F)cc23)C(=O)C1 [Example 26, ethyl 4-[5-fluoro-1-methyl-6-(pyridin-2-ylmethoxy)-1H-pyrrolo[2,3-b]pyridin-3-yl]-3-oxopiperazine-1-carboxylate] | > 6
3 | CCOC(=O)N1CCN(c2cn(C)c3nc(OCc4ccccn4)c(Cl)cc23)C(=O)C1 [Example 27, Ethyl 4-[5-chloro-1-methyl-6-(pyridin-2-ylmethoxy)-1H-pyrrolo[2,3-b]pyridin-3-yl]-3-oxopiperazine-1-carboxylate] | > 6
4 | COC(=O)N1CCN(c2cn(C)c3nc(OCc4ccccn4)ccc23)C(=O)C1 [Example 2, methyl 4-[1-methyl-6-(pyridin-2-ylmethoxy)-1H-pyrrolo[2,3-b]pyridin-3-yl]-3-oxopiperazine-1-carboxylate] | > 6
5 | CCn1cc(N2CCN(C(=O)OC)CC2=O)c2ccc(OCc3ccccn3)nc21 [Example 23, methyl 4-[1-ethyl-6-(pyridin-2-ylmethoxy)-1H-pyrrolo[2,3-b]pyridin-3-yl]-3-oxopiperazine-1-carboxylate] | > 6
6 | CCOC(=O)N1CCN(c2cn(C)c3nc(OCc4ccc(C)cn4)ccc23)C(=O)C1 [Example 8, Ethyl 4-{1-methyl-6-[(5-methylpyridin-2-yl)methoxy]-1H-pyrrolo[2,3-b]pyridin-3-yl}-3-oxopiperazine-1-carboxylate] | > 6
7 | CCOC(=O)N1CCN(c2cn(C)c3nc(OCc4ccccn4)c(C)cc23)C(=O)C1 [Example 28, Ethyl 4-[1,5-dimethyl-6-(pyridin-2-ylmethoxy)-1H-pyrrolo[2,3-b]pyridin-3-yl]-3-oxopiperazine-1-carboxylate] | > 6
8 | CCCOC(=O)N1CCN(c2cn(C)c3nc(OCc4ccccn4)ccc23)C(=O)C1 [Example 3, Propyl 4-[1-methyl-6-(pyridin-2-ylmethoxy)-1H-pyrrolo[2,3-b]pyridin-3-yl]-3-oxopiperazine-1-carboxylate] | > 6
9 | CCOC(=O)N1CCN(c2cn(C)c3nc(OCc4cccnc4)ccc23)C(=O)C1 [Example 6, Ethyl 4-[1-methyl-6-(pyridin-3-ylmethoxy)-1H-pyrrolo[2,3-b]pyridin-3-yl]-3-oxopiperazine-1-carboxylate] | > 6
10 | CCOC(=O)N1CCN(c2cn(C)c3nc(OCc4ccccn4)ccc23)C(=O)C1 [Example 1, ethyl 4-[1-methyl-6-(pyridin-2-ylmethoxy)-1H-pyrrolo[2,3-b]pyridin-3-yl]-3-oxopiperazine-1-carboxylate] | > 6
11 | CCOC(=O)N1CCN(c2cn(C)c3nc(OCc4ccncc4)ccc23)C(=O)C1 [Example 5, Ethyl 4-[1-methyl-6-(pyridin-4-ylmethoxy)-1H-pyrrolo[2,3-b]pyridin-3-yl]-3-oxopiperazine-1-carboxylate] | > 6
12 | CCCOC(=O)N1CCN(c2cn(CC)c3nc(OCc4ccccn4)ccc23)C(=O)C1 [Example 25, Propyl 4-[1-ethyl-6-(pyridin-2-ylmethoxy)-1H-pyrrolo[2,3-b]pyridin-3-yl]-3-oxopiperazine-1-carboxylate] | > 6
13 | CCOC(=O)N1CCN(c2cn(CC)c3nc(OCc4ccccn4)ccc23)C(=O)C1 [Example 24, Ethyl 4-[1-ethyl-6-(pyridin-2-ylmethoxy)-1H-pyrrolo[2,3-b]pyridin-3-yl]-3-oxopiperazine-1-carboxylate] | > 6
14 | Cn1cc(N2CCN(C(=O)OCCF)CC2=O)c2ccc(OCc3ccccn3)nc21 [Example 20, 2-fluoroethyl 4-[1-methyl-6-(pyridin-2-ylmethoxy)-1H-pyrrolo[2,3-b]pyridin-3-yl]-3-oxopiperazine-1-carboxylate] | > 6
15 | Cn1cc(N2CCN(C(=O)OC3CCC3)CC2=O)c2ccc(OCc3ccccn3)nc21 [Example 22, Cyclobutyl 4-[1-methyl-6-(pyridin-2-ylmethoxy)-1H-pyrrolo[2,3-b]pyridin-3-yl]-3-oxopiperazine-1-carboxylate] | > 6
16 | CC(C)OC(=O)N1CCN(c2cn(C)c3nc(OCc4ccccn4)ccc23)C(=O)C1 [Example 4, 1-Methylethyl 4-[1-methyl-6-(pyridin-2-ylmethoxy)-1H-pyrrolo[2,3-b]pyridin-3-yl]-3-oxopiperazine-1-carboxylate] | > 6
